Assay results published in publication doi:10.1101/2022.08.09.503292.
Construct, isoform or probe ends are uncertain for at least one entry. A weaker result is weaker than the reference pair of the same experiment.

Tests used:
[1] = system: BRCA1-f-BARD1 221 W146Bpa; experiment: competition with a labelled probe; conditions: vs NCP185 Bpa crosslink
[2] = system: BRCA1-f-BARD1 221 A195Bpa; experiment: competition with a labelled probe; conditions: vs NCP185 Bpa crosslink

| Sequence | binding result [1] | binding result [2] | binding result ([1]; less effective than bubble-DNA) | binding result ([2]; less effective than bubble-DNA) |
| --- | --- | --- | --- | --- |
| CCTACGACGCCTGGCTCTTTCCCGCAATTGTGTACC / GGTACACAATTGCGCTGGTACCCCAGGCGTCGTAGG [36-mer bubble-DNA] | binds | binds | – | – |
| CCTACGACGCCTGGGGTACCAGCGCAATTGTGTACC (double strand) [36-mer dsDNA] | – | – | binds more weakly | binds more weakly |
